In patent publication US4510136A (priority 1983, dated 1985):
At least one read-out could not be matched to a standard name with certainty.

Assays:
Assay type in all cases: in vivo
Conditions in all cases: 100 ppm spray, day before inoculation
[1] = test system: Erysiphe cichoracearum; experiment: Cucumber powdery mildew control on sprayed cucumber seedlings (Example 80)
Method: These suspensions were sprayed to the point of run-off, on cucumber seedlings. The following day, the plants were inoculated with a spore suspension of the fungus Erysiphe cichoracearum, causal agent of cucumber powdery mildew, and incubated in a growth room for 7 days. Disease ratings were then made. Treated plants from successful treatments had little or no powdery mildew in contrast to untreated plants which were covered with powdery mildew. Phytotoxicity in the form of growth reduction or hormonal effects was observed on some of the plants in association with disease control.

[2] = test system: Venturia inaequalis; experiment: Apple scab control on sprayed apple seedlings (Example 82)
Method: These suspensions were sprayed to the point of run-off on apple seedlings. The following day, the plants were inoculated with a spore suspension of the fungus Venturia inaequalis, causal agent of apple scab, and incubated in a saturated humidity chamber at 20° for 24 hours and then in a growth room for an additional 10-12 days. Treated plants from successful treatments had fewer apple scab lesions when compared to untreated plants which were covered with scab lesions. Phytotoxicity expressed as growth reduction was observed on some of the plants in association with disease control.

[3] = test system: Helminthosporium maydis; experiment: Southern corn leaf blight control on sprayed corn seedlings (Example 83)
Method: The compounds of the previous examples were again dissolved in acetone in an amount equal to 6% of the final volume and then suspended at a concentration of 100 ppm in purified water containing 250 ppm of the surfactant TREM 014 (polyhydric alcohol esters). These suspensions were sprayed to the point of run-off on corn seedlings. The following day, the plants were inoculated with a spore suspension of Helminthosporium maydis, causal agent of southern corn leaf blight, and incubated in a saturated humidity chamber at 20° for 24 hours and then in a growth room for an additional 7 days, when disease ratings were made. Treated plants from successful treatments had few or no lesions while the untreated plants had numerous lesions on each leaf. Phytotoxicity expressed as growth reduction was observed on some of the plants in association with disease control.

[4] = test system: Cercospora arachidicola; experiment: Peanut early leafspot control on sprayed peanut seedlings (Example 84)
Method: These suspensions were sprayed to the point of run-off on peanut seedlings. The following day, the plants were inoculated with a spore suspension of Cercospora arachidicola, causal agent of peanut early leafspot, and incubated in a saturated humidity chamber at 27° for 24 hours and then in a growth room for an additional 14 days, when disease ratings were made. Treated plants from successful treatments had few or no leafspots while the untreated plants had numerous leafspots.

[5] = listed as 2-Chlorophenyl(dimethyl)(1H--1,2,4-triazol-1-ylmethyl)silane

C[Si](C)(Cn1cncn1)c1ccccc1Cl [(2-Chlorophenyl)dimethyl(1H-1,2,4-triazol-1-ylmethyl)silane]
% Control Cucumber Powdery Mildew [1]: 0% | % Control Apple Scab [2]: 100% | % Control Apple Scab [2, 5]: 60% | % Control of Southern Corn Leaf Blight [3]: 100% | % Control of Southern Corn Leaf Blight [3, 5]: 0% | % Control Peanut Easly Leafspot [4]: 30% | % Control Peanut Easly Leafspot [4, 5]: 0%
